# Screen size: about 330,000 compounds; about 7,700 (2.3%) were called active. The inconclusive results got no clear call from the source; some entries with a clear call stand among them for comparison. Calls come from the whole dose curve; as a rule, active = well fitted inhibition curve with a large enough effect; inconclusive = small, poorly fitted or top-dose-only effect, or effect the other way; inactive = flat fitted curve, though single readings scatter. A potency beside an inconclusive call is a rough fit, not a confirmed value.
# Experiment: qHTS screen for small molecules that inhibit ELG1-dependent DNA repair in human embryonic kidney (HEK293T) cells expressing luciferase-tagged ELG1; note: nearly all actives have a fitted effect of over 55% in size
# Settings: HEK293T ELG1-luciferase reporter, luminescence, 16 h, DNA damage induced by 5-fluorouridine; series mostly up to 46.1 µM
# Procedure, shortened: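 HEK293T cells expressing luciferase-tagged ELG1 (2,000/well) received 5-Fluorouridine plus compound or DMSO for 16 hr at 37 °C. Luciferase was read by ONE-Glo luminescence after 30 min at room temperature.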
# Potency is the fitted concentration of half-maximal effect.
row,Compound,Potency
1,COc1ccc(C(=O)Nc2cccc(C(=O)N3CCCC3)c2)cc1,"inconclusive: 25.9 µM [activator, single point]"
2,C=CCN(c1ccc(C(=O)Nc2ccc3c(c2)n(C)c(=O)n3C)cc1)S(C)(=O)=O,"inconclusive: 18.3 µM [activator, partial curve]"
3,Cc1cccn2cc(COc3cccc([N+](=O)[O-])c3)nc12,"inconclusive: 20.6 µM [activator, partial curve]"
4,Cc1cc(N2CCN(C)CC2)nc2ccc(NC(=S)N3CCN(c4ccc(Cl)cc4)CC3)cc12,inactive
5,Cc1ccc(OCC(=O)Nc2cccc(-c3nnc(-c4ccccc4)o3)c2)cc1,"inconclusive: 29.1 µM [inhibitor, single point]"
6,O=C1C(c2ccccc2)=[N+]([O-])c2ccccc21,"inconclusive: 8.91 µM [activator, single point]"
7,O=C(Nc1ccc(S(=O)(=O)NCc2cccnc2)cc1)c1ccco1,"inconclusive: 13 µM [inhibitor, partial curve]"
8,CCCCN1CC(=O)N2[C@H]3c4ccc(OC)cc4OC[C@@H]3[C@H](c3ccccc3)[C@]2(C)C1=O,"inconclusive: 20.6 µM [inhibitor, partial curve, poor fit]"
9,Cc1cc(C)c(NC(=S)NCCCSC2CCCCC2)c(C)c1,"inconclusive: 29.1 µM [inhibitor, single point]"
10,O=C(CN1CCN(C(=O)c2c(F)cccc2F)CC1)Nc1ccccc1C(F)(F)F,"inconclusive: 20.6 µM [inhibitor, single point]"
11,CC1=NN(c2ccc(Cl)c(C(=O)O)c2)C(=O)/C1=C\c1ccc(-c2ccc(C(=O)O)cc2)o1,"inconclusive: 29.1 µM [activator, single point]"
12,Cc1cc(C(=O)COc2cccc([N+](=O)[O-])c2)c(C)n1C1CC1,"inconclusive: 3.98 µM [activator, full curve]"
13,O=C(c1c(F)cccc1F)N1CCN(c2ncc(Br)cn2)CC1,"inconclusive: 20.6 µM [inhibitor, single point]"
14,O=C(c1cc(-c2cccc(O)c2)on1)N1CCc2ccccc2C1,"inconclusive: 25.9 µM [activator, single point]"
15,Cc1ccc(-c2noc(-c3ccoc3C)n2)cc1,"inconclusive: 2.31 µM [activator, full curve]"
16,CC(C)Nc1nc(Cl)nc(Nc2ccccc2)n1,"inconclusive: 8.2 µM [activator, partial curve]"
17,Cc1ccc(C(=O)N2CCCC(C(=O)Nc3cccc(-c4ccc(F)cc4)c3)C2)cn1 (stereo unspecified),inactive
18,Cc1ccccc1OCC(=O)N/N=C/c1ccc(N2CCOCC2)o1,"inconclusive: 14.6 µM [activator, single point]"
19,Cc1ccc(S(=O)(=O)N2CCCCC2)cc1NC(=O)CCc1nc2ccccc2c(=O)[nH]1,"inconclusive: 0.73 µM [activator, partial curve, poor fit]"
20,O=C(NNC(=O)c1ccc(Oc2ccc(C3SCCS3)cc2)o1)c1ccc(Cl)cc1,"inconclusive: 18.3 µM [inhibitor, partial curve]"
21,COc1cccc(/C=N\NC(=O)c2sc(N)nc2C)c1OC,"inconclusive: 16.4 µM [activator, single point]"
22,Clc1ccc(OCCSc2ncccn2)c2ccccc12,"inconclusive: 10.3 µM [activator, partial curve]"

row,Compound,Potency
1,CCOc1ccc(N=C2SCC(=O)N2CC)cc1,inactive
2,Cc1ccc2nc(C)/c(=N\O)c(C)nc2c1,"inconclusive: 35.5 µM [activator, single point]"
3,CCOC(=O)C1CCCN(C(=O)c2ccc3c(c2)N(Cc2ccccc2)C(=O)c2ccccc2S3=O)C1 (stereo unspecified),inactive
4,Cc1ccc2nc3c(cc2c1)c(NC(=O)c1ccccn1)nn3CC(C)C,active: 23.1 µM
5,NC(=O)c1cccnc1Nc1ccccc1F,"inconclusive: 20.6 µM [activator, single point]"
6,COC(=O)c1ccccc1NC(=O)/C=C/c1ccco1,"inconclusive: 20.6 µM [activator, single point]"
7,CCN(CC)CCCN=Cc1c(O)n(-c2cccc(C)c2)c(=O)c2ccccc12,"inconclusive: 29.1 µM [activator, single point]"
8,CC(C)(C)c1ccc(C(=O)n2cnc3ccccc32)cc1,"inconclusive: 20.6 µM [activator, single point]"
9,Cc1ccc(-c2nc(SCC(=O)NCC3CCCO3)c(-c3ccc(C)cc3)[nH]2)cc1 (stereo unspecified),"inconclusive: 20.6 µM [inhibitor, single point]"
10,Cc1nc(NC(=O)/C=C/c2ccc(C(C)(C)C)cc2)sc1C(=O)N(C)C,"inconclusive: 29.1 µM [inhibitor, single point]"
11,COC(CNC(=O)CSCc1nc(-c2ccc(SC)cc2)oc1C)OC,"inconclusive: 16.4 µM [inhibitor, single point]"
12,Cc1nn(CCCC(=O)NC(C)c2ccccc2)c(=O)c2nn(-c3ccccc3)c(C)c12 (stereo unspecified),"inconclusive: 14.6 µM [inhibitor, partial curve]"
13,O=C(c1cc(-c2ccccn2)nc2c(Cl)cccc12)N1CCN(C(=O)C2CCCO2)CC1 (stereo unspecified),inactive
14,NCCCC[C@@H](C(=O)NCCCCCCCCCCC(=O)N1CCNCC1)n1cc(CCO)nn1,inactive
15,COC(=O)c1ccsc1NC(=O)CCc1ccccc1,"inconclusive: 20.6 µM [activator, partial curve]"
16,CCOC(=O)Cc1c(C)nc2c(-c3ccccc3)cnn2c1C,"inconclusive: 7.3 µM [activator, partial curve, poor fit]"
17,COc1cc(-c2noc(C)c2C(=O)NCc2ccc(C)o2)cc(OC)c1OC,inactive
18,CC(=O)Nc1ccc(N(C(=O)c2cnccn2)C(C(=O)NC2CCCCC2)c2ccc(O)cc2)cc1 (stereo unspecified),"inconclusive: 16.4 µM [activator, single point]"
19,COc1cc(/C=N/NC(=O)c2ccc3c(c2)OCCO3)cc(Cl)c1O,"inconclusive: 20.6 µM [activator, single point]"
20,COc1ccc(S(=O)(=O)N(C)c2ccc(C(=O)N3CCOCC3)cc2)cc1,inactive
21,COc1cc(-c2noc(C)c2/C=C/c2cccc([N+](=O)[O-])c2)cc(OC)c1OC,active: 2.59 µM
22,CC(C)CN1C(=O)C(=O)N(CC(=O)c2ccc3c(c2)OCO3)C1=O,"inconclusive: 7.3 µM [activator, single point]"

# A section of the results above:
row,Compound,Potency
20,O=C(NNC(=O)c1ccc(Oc2ccc(C3SCCS3)cc2)o1)c1ccc(Cl)cc1,"inconclusive: 18.3 µM [inhibitor, partial curve]"
21,COc1cccc(/C=N\NC(=O)c2sc(N)nc2C)c1OC,"inconclusive: 16.4 µM [activator, single point]"
22,Clc1ccc(OCCSc2ncccn2)c2ccccc12,"inconclusive: 10.3 µM [activator, partial curve]"
1,CCOc1ccc(N=C2SCC(=O)N2CC)cc1,inactive

# Next part

row,Compound,Potency
1,O=C(c1cc([N+](=O)[O-])ccc1Cl)N1c2ccccc2Sc2ccccc21,inactive
2,N=C1/C(=C\c2ccc(-c3cccc(C(=O)O)c3)o2)C(=O)N=C2SC=C(c3ccccc3)N12,"inconclusive: 5.8 µM [activator, partial curve, poor fit]"
3,CCN1C(=O)C(CC(=O)Nc2cccc(C(C)=O)c2)S/C1=N\c1ccccn1 (stereo unspecified),"inconclusive: 8.2 µM [inhibitor, partial curve]"
4,CCOc1ccccc1NC(=O)Cn1nnc(C(=O)NCCc2ccc(OC)c(OC)c2)c1N,"inconclusive: 23.1 µM [inhibitor, single point]"
5,CCOC(=O)C(=CNc1ccc(NC2=NCC(C)(C)S2)cc1)C(=O)OCC,"inconclusive: 32.6 µM [inhibitor, partial curve, poor fit]"
6,CCN1CCN(Cc2c(O)c(Cl)cc3c(C)cc(=O)oc23)CC1,inactive
7,COc1cccc(/C=N/Nc2nc(Nc3ccccc3)nc(-n3nc(C)cc3C)n2)c1O,active: 2.59 µM
8,NC1=C(c2ccc(F)cc2)C(=O)CS1,"inconclusive: 35.5 µM [inhibitor, single point]"
9,COc1cc(NC(=O)c2sc(C)nc2C)c(OC)cc1NC(=O)c1ccccc1,active: 14.6 µM
10,Cc1ccc(/C(N)=N/OC(=O)Cc2ccccc2)cc1,"inconclusive: 18.4 µM [activator, partial curve]"
11,COc1cn(-c2ccccc2)nc1C(=O)NCc1ccc(C)cc1,"inconclusive: 29.1 µM [inhibitor, single point]"
12,CC1CCc2sc(C(=O)NN=C3CCC(c4ccccc4)CC3)cc2C1 (stereo unspecified),"inconclusive: 2.91 µM [activator, full curve, poor fit]"
13,C/C(=N\NC(=O)c1ccc(-n2cnnn2)cc1)c1ccc(Cl)cc1,"inconclusive: 14.6 µM [activator, partial curve, poor fit]"
14,CC(=O)c1cccc(N(CC(=O)NC2CCCC2)C(=O)c2ccc(C)s2)c1,"inconclusive: 25.9 µM [activator, single point]"
15,O=C(OCC(=O)N1CCOCC1)c1ccccc1Br,"inconclusive: 23.1 µM [activator, partial curve]"
16,CCCCC/C(=N\NC(=O)CCC(=O)NCc1ccccc1)c1ccccc1,"inconclusive: 16.4 µM [inhibitor, partial curve]"
17,O=C(NCC(=O)N(Cc1cccs1)C(C(=O)NC1CCCCC1)c1ccco1)c1cccs1 (stereo unspecified),"inconclusive: 29.1 µM [inhibitor, partial curve, poor fit]"
18,Cc1cn(COC/C=C/c2ccccc2)c(=O)[nH]c1=O,inactive
19,O=c1oc2ccccc2c(Cl)c1CN1CCCCC1,"inconclusive: 20.6 µM [activator, single point]"
20,O=C(Nc1ccc(NS(=O)(=O)c2ccccc2)cc1)c1ccccc1Cl,"inconclusive: 25.9 µM [inhibitor, single point]"
21,Cc1cccc(/C=C2\Sc3ccc(C(=O)N4CCC(C)CC4)cc3N(C)C2=O)c1,inactive
22,Cc1ccc(-n2nnnc2-c2cnc3ccc(Cl)cc3c2-c2ccccc2)cc1,inactive

# From PubChem BioAssay AID504467 (National Center for Advancing Translational Sciences (NCATS), 2011)
